Experimental data: patent US20250188457A1, “COMPOSITIONS AND METHODS FOR THE TREATMENT OF GLIOBLASTOMA BY INHIBITION OF THE TFPI2-CD51-STAT6 SIGNALING AXIS” (Northwestern University, priority 2023, published 2025)
No constants are given. Whether binding was seen depends on the method and setting. Binding seen in cells or lysates may run through a third protein. Some entries that bind do so weakly or less than the wild type.

By UniProt entry, the sequences of proteins in these tests, tags left out. Residues count along the entry.
UniProt P06756, residues 31-1048: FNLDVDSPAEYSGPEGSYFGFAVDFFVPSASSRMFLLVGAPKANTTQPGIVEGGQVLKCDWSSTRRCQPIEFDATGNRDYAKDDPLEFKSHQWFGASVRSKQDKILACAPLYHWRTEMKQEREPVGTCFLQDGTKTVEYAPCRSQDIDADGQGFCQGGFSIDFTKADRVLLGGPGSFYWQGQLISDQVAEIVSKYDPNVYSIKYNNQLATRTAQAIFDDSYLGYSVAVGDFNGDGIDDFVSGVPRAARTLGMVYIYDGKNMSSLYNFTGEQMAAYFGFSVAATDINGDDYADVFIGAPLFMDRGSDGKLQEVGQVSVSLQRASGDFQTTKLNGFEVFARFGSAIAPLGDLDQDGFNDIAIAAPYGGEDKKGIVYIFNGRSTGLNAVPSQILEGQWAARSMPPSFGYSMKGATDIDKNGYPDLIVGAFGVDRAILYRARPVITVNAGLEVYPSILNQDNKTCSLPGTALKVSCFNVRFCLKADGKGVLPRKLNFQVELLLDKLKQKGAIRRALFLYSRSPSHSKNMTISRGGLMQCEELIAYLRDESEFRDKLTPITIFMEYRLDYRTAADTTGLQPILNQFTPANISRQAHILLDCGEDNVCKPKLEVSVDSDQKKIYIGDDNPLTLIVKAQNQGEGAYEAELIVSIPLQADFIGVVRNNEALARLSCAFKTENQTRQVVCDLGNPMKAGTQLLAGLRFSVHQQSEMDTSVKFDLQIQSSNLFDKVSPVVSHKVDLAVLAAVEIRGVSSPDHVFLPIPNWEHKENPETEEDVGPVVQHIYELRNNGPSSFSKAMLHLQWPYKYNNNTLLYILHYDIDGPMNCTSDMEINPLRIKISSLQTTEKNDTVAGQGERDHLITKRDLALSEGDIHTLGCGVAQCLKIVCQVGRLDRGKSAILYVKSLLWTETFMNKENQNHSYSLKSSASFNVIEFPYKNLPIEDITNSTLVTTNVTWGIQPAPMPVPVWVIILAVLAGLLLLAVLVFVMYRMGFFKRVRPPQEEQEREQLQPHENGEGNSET

Legend:
[1] = molecular target: CD51 (integrin alpha V, ITGAV) on human microglia (HMC3 cell line, primary human microglia PrhMG) (human) (UniProt P06756); test: co-immunoprecipitation and immunoblot from HMC3 microglia treated with 20 ng/ml TFPI2 recombinant protein for 1 hr
[2] = molecular target: T1, CD51 (integrin alpha V, Itgav) on mouse SIM-A9 microglia (mouse) (UniProt P43406); test: co-immunoprecipitation and immunoblot from SIM-A9 microglia treated with 20 ng/ml TFPI2 recombinant protein for 1 hr
T1 sequence (looked up): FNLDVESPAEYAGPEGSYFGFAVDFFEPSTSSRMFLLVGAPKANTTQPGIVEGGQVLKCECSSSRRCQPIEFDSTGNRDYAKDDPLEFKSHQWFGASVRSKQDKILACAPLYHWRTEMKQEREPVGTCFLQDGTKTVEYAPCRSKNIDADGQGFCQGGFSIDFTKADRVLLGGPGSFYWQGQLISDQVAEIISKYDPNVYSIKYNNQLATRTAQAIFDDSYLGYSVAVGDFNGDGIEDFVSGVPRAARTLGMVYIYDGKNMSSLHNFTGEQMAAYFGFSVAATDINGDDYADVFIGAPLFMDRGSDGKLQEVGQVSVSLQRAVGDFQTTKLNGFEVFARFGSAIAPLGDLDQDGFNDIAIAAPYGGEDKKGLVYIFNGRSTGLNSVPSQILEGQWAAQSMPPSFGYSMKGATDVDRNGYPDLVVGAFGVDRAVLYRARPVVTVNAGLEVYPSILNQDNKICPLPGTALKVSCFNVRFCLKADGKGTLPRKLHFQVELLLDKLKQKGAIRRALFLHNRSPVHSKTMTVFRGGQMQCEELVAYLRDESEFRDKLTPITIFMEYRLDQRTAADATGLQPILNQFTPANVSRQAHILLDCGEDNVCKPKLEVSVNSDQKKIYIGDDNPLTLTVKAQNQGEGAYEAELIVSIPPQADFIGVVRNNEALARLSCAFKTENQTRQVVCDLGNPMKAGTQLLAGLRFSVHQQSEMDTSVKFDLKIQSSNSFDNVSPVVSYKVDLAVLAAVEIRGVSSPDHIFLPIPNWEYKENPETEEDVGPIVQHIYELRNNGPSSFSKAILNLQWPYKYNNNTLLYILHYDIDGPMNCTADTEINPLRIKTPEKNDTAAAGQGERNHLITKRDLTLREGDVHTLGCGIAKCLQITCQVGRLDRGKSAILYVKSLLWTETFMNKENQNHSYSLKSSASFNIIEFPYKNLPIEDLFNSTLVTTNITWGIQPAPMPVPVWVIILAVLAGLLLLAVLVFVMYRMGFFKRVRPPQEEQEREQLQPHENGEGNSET

B1: TFPI2 recombinant protein (tissue factor pathway inhibitor 2; BioVision, #7481-10) (ligand, UniProt P48307 23-235, looked up)
chain: DAAQEPTGNNAEICLLPLDYGPCRALLLRYYYDRYTQSCRQFLYGGCEGNANNFYTWEACDDACWRIEKVPKVCRLQVSVDDQCEGSTEKYFFNLSSMTCEKFFSGGCHRNRIENRFPDEATCMGFCAPKKIPSFCYSPKDEGLCSANVTRYYFNPRYRTCDAFTYTGCGGNDNNFVSREDCKRACAKALKKKKKMPKLRFASRIRKIRKKQF
notes: Bought recombinant protein added to microglia at 20 ng/ml; also called recombinant TFPI2; secreted TFPI2
binding [1]: binds | binding [2]: binds
